# According to the supplement of paper PMC12067093, “Discovery and optimisation of a covalent ligand for TRIM25 and its application to targeted protein ubiquitination” (Chemical Science, 2025):
# Protein sequences, listed by entry. Tags and fused reporters are not part of them. Lines headed by an entry give the natural chain unless they say otherwise; changes in a name come on top.
# UniProt Q9H2U1: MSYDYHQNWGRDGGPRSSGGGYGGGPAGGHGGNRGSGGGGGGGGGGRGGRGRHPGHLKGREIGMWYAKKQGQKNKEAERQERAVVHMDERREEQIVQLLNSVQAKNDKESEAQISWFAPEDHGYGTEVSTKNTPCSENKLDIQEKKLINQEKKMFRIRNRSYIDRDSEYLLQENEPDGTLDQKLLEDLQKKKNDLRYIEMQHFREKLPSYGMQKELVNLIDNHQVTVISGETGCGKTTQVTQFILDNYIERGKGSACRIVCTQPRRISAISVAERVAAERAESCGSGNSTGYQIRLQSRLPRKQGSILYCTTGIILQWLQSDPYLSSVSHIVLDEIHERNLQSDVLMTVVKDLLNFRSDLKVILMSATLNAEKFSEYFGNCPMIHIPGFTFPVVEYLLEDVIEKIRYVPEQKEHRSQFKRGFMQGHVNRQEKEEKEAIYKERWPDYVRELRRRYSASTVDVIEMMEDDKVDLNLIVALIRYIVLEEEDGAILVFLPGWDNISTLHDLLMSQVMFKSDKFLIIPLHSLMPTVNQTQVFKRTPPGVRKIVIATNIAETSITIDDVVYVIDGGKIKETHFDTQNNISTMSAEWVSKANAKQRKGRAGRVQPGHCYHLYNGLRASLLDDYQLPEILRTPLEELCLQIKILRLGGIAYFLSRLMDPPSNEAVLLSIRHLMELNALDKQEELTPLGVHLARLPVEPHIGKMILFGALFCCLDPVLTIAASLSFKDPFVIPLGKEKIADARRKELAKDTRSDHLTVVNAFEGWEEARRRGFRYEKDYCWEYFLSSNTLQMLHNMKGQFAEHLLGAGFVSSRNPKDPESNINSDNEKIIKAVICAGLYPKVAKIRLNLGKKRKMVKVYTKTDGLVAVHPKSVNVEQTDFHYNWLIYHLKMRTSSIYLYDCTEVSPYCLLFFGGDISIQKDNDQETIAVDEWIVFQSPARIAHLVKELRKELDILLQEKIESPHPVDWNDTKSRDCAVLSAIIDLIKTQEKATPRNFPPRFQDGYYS
# UniProt Q96GE9: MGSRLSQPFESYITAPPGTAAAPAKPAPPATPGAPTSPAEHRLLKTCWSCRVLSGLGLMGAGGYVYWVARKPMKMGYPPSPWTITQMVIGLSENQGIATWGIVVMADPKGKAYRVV
# UniProt O60832: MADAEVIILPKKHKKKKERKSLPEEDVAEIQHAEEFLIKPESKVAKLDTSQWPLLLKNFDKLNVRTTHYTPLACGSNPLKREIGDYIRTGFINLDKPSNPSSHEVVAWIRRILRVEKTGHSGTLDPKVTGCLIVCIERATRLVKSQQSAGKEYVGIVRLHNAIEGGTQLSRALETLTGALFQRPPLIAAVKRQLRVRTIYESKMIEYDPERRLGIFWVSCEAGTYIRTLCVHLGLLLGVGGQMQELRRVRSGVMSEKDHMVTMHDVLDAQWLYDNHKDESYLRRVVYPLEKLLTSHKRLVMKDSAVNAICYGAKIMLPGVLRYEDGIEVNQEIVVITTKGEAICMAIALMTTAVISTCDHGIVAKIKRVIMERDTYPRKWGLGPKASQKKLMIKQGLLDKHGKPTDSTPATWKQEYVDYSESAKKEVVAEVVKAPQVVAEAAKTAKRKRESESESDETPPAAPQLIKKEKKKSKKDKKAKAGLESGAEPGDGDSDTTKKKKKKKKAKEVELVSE
# UniProt Q9Y485, whole entry, looked up: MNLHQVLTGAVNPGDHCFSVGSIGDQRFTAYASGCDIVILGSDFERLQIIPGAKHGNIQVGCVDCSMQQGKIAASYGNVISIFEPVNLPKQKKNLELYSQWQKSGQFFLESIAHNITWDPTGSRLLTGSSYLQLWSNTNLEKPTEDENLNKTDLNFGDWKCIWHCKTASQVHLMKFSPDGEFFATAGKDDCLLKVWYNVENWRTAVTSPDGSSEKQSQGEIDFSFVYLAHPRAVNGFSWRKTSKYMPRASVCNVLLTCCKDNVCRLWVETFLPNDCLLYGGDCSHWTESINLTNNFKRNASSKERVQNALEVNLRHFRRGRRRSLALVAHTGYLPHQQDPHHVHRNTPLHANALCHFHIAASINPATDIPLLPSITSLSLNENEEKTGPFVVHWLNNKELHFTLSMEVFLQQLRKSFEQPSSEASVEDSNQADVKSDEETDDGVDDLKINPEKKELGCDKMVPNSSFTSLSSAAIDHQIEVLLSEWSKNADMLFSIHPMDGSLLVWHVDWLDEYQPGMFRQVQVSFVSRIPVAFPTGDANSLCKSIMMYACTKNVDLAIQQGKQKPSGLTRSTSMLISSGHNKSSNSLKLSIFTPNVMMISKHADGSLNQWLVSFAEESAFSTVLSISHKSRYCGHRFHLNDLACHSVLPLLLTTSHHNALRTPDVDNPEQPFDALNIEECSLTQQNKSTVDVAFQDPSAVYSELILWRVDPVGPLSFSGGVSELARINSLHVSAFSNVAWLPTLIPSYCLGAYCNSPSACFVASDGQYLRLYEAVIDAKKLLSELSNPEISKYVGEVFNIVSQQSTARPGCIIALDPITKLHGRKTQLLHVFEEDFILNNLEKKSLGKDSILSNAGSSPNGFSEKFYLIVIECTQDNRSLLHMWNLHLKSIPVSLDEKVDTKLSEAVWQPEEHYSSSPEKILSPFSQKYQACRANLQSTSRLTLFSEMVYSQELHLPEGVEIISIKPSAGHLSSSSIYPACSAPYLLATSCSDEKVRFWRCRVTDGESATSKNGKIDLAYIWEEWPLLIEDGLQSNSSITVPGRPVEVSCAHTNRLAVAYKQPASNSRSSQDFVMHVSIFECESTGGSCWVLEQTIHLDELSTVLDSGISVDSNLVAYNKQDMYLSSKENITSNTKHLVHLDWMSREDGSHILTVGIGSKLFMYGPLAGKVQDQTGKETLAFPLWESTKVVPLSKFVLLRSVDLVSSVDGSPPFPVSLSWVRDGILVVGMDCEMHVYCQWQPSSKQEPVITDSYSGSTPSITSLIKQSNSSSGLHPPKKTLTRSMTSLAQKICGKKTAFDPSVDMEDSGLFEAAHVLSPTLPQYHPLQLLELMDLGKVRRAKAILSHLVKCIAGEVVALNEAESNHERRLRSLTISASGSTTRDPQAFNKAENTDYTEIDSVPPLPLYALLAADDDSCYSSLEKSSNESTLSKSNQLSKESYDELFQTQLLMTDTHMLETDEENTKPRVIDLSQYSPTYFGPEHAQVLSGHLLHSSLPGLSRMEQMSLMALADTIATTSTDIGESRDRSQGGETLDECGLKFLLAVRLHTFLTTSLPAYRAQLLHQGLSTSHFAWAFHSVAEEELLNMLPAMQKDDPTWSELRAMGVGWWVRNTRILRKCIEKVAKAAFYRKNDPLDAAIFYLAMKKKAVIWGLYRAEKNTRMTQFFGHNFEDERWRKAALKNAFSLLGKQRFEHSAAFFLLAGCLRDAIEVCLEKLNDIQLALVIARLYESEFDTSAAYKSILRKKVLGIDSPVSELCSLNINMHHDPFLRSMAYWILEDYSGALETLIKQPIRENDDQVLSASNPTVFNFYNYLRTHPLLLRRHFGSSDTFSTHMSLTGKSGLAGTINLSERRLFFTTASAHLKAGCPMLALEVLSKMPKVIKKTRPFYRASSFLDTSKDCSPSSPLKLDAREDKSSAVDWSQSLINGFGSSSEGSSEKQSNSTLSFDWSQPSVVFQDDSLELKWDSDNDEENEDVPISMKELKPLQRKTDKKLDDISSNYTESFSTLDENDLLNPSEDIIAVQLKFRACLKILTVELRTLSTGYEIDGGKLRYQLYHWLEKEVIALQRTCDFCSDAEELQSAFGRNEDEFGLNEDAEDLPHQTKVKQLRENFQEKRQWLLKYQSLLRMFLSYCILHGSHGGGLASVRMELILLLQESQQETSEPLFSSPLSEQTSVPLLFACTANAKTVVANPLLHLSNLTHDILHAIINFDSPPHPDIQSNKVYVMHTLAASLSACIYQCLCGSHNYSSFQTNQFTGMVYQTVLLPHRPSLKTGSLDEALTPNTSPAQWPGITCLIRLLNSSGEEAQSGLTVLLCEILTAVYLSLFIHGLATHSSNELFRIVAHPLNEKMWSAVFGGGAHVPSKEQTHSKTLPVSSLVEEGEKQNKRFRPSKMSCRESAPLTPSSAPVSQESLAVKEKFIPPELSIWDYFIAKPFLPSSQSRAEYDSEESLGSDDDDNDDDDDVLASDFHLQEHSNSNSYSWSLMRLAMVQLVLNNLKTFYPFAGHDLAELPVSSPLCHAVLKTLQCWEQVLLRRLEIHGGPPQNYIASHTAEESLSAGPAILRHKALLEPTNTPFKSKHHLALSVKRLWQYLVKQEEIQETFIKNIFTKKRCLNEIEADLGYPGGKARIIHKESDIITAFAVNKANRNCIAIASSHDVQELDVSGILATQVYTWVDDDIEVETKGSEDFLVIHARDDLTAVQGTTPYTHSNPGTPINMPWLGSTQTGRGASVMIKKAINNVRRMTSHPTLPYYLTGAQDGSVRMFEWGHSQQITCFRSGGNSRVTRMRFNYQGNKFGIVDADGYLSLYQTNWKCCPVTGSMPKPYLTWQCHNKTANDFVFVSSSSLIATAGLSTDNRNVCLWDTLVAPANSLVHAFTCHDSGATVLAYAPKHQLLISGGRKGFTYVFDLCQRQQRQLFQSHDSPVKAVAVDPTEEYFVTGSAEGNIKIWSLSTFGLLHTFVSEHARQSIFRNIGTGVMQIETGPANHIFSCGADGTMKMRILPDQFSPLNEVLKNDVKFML
# UniProt Q9Y222: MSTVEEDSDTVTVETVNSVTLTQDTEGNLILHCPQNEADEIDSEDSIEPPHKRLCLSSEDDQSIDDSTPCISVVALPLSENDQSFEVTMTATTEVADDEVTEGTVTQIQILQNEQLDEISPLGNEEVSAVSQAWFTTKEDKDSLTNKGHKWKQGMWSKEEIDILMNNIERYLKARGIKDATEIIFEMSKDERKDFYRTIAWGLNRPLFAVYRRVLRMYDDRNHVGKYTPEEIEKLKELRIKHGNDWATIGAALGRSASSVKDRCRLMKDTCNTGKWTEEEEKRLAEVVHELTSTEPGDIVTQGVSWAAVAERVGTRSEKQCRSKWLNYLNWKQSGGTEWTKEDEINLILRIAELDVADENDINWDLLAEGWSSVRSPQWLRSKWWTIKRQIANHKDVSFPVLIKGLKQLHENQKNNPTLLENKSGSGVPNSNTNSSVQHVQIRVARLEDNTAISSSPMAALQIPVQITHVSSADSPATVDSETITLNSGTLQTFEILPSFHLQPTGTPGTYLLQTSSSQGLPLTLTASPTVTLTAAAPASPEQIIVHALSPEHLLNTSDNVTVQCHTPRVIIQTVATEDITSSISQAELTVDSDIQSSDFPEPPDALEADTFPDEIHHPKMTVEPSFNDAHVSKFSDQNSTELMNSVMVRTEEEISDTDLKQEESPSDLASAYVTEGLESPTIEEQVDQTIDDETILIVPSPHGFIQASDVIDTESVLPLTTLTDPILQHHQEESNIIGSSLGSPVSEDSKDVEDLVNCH
# UniProt Q8TBM8: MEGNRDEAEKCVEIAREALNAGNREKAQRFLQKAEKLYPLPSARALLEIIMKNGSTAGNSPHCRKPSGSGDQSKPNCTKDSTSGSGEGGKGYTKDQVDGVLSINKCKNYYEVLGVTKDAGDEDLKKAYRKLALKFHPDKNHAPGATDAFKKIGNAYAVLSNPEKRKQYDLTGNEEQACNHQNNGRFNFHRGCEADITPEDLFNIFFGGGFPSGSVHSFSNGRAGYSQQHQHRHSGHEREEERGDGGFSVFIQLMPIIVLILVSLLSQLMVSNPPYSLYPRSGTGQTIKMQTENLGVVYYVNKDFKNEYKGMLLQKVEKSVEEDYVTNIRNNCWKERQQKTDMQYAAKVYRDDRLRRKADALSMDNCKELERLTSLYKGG
# UniProt Q9UNQ2: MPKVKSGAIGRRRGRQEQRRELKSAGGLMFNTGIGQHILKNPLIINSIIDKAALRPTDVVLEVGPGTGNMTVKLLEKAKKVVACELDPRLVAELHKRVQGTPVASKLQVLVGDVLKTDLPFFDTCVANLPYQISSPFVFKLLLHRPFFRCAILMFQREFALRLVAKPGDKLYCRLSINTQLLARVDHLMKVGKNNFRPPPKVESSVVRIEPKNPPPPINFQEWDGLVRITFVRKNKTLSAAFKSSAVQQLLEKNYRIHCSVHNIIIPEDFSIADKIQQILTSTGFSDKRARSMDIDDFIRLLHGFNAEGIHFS
# UniProt Q9NW81: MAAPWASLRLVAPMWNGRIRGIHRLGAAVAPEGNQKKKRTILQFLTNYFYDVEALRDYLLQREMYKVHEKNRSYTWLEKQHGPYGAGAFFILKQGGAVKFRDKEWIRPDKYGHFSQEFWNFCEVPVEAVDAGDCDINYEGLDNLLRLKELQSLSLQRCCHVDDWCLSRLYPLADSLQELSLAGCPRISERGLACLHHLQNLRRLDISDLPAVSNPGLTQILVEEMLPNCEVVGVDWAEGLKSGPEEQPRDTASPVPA
# Some of the results follow.
# Compound: Cc1cc(ccc1-c1ccccc1)C(=O)N1CCCN(CC1)C(=O)CCl [compound 10]
# Assay: probe-labelled cysteine peptide fold change vs DMSO (competition) (log2 fold change); higher = less target engagement (more negative = stronger competition)
# Settings: THP-1, incubation time: 4 h
# 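Further: competitive profiling in live THP-1 cells: cysteine peptides tagged with an iodoacetamide desthiobiotin (IA-DTB) probe, intensity after compound treatment relative to DMSO-treated cells.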
target,measurement,setting,value
DHX36_Q9H2U1_836_AVICAGLYPK (UniProt Q9H2U1),probe-labelled cysteine peptide fold change,10 µM,-0.0417
same,probe-labelled cysteine peptide fold change,50 µM,-0.155
DMAC1_Q96GE9_50_TCWSCR (UniProt Q96GE9),probe-labelled cysteine peptide fold change,10 µM,-0.133
same,probe-labelled cysteine peptide fold change,50 µM,0.143
DIDO1_Q9BTC0_350_WRPGDADGTDCTSIGTIEQK (UniProt Q9BTC0),probe-labelled cysteine peptide fold change,10 µM,-0.22
same,probe-labelled cysteine peptide fold change,50 µM,0.0275
DKC1_O60832_74_TTHYTPLACGSNPLK (UniProt O60832),probe-labelled cysteine peptide fold change,10 µM,-0.00845
same,probe-labelled cysteine peptide fold change,50 µM,0.288
DMXL1_Q9Y485_2781_MFEWGHSQQITCFR (UniProt Q9Y485),probe-labelled cysteine peptide fold change,10 µM,-0.0118
same,probe-labelled cysteine peptide fold change,50 µM,0.112
DHX40_Q8IX18_153_YMTDGCLLK (UniProt Q8IX18),probe-labelled cysteine peptide fold change,10 µM,0.0621
same,probe-labelled cysteine peptide fold change,50 µM,0.172
DNAJC16_Q9Y2G8_375_LFHELCPVKR (UniProt Q9Y2G8),probe-labelled cysteine peptide fold change,10 µM,-0.0698
same,probe-labelled cysteine peptide fold change,50 µM,-0.0193
DMTF1_Q9Y222_271_DRCRLMKDTCNTGK (UniProt Q9Y222),probe-labelled cysteine peptide fold change,10 µM,-0.167
same,probe-labelled cysteine peptide fold change,50 µM,-0.258
DNMT1_P26358_686_QACQER (UniProt P26358),probe-labelled cysteine peptide fold change,10 µM,-0.624
same,probe-labelled cysteine peptide fold change,50 µM,0.658
DNAJB14_Q8TBM8_77_KPSGSGDQSKPNCTK (UniProt Q8TBM8),probe-labelled cysteine peptide fold change,10 µM,0.00149
same,probe-labelled cysteine peptide fold change,50 µM,-0.752
DIMT1_Q9UNQ2_259_IHCSVHNIIIPEDFSIADK (UniProt Q9UNQ2),probe-labelled cysteine peptide fold change,10 µM,0.269
same,probe-labelled cysteine peptide fold change,50 µM,0.229
DHX30_Q7L2E3_673_GEPGGILCFLPGWQEIK (UniProt Q7L2E3),probe-labelled cysteine peptide fold change,10 µM,0.357
same,probe-labelled cysteine peptide fold change,50 µM,0.169
DMAC2_Q9NW81_184_LYPLADSLQELSLAGCPR (UniProt Q9NW81),probe-labelled cysteine peptide fold change,10 µM,0.0158
same,probe-labelled cysteine peptide fold change,50 µM,-0.00166
DMXL2_Q8TDJ6_2880_NVCLWDTLISPGNSLIHGFTCHDHGATVLQYAPK (UniProt Q8TDJ6),probe-labelled cysteine peptide fold change,10 µM,0.129
same,probe-labelled cysteine peptide fold change,50 µM,0.268
